Test results from paper PMC4756710.
These are yes or no findings as the source states them, for the method shown. Binding seen in cells or lysates may run through a third protein. Some binding calls cover weakened binding; strength is not graded here. For part of these data: Tags and fused reporters may be left off the sequences shown.

Sequences of proteins named here, by UniProt entry; tags and fusion partners are left off.
UniProt Q9GZV5: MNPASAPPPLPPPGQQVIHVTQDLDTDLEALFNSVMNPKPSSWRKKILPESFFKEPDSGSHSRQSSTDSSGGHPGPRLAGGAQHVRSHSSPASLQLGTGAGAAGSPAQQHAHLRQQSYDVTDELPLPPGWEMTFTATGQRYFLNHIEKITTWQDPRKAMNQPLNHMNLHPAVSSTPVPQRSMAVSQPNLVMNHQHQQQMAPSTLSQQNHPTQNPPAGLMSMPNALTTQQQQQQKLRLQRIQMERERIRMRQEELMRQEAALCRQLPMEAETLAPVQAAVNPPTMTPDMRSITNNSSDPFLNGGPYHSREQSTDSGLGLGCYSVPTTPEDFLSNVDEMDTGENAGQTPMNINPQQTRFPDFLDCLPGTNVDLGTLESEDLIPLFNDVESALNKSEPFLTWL

What was measured:
[1] = target: T1, YAP (Yes-associated protein), endogenous (human (endogenous in MDA-MB231 and MCF10A)), P46937; test: proximity ligation; in situ PLA (Duolink In Situ Orange Kit Mouse/Rabbit) on formaldehyde-fixed MDA-MB231 cells or doxycycline-induced ZEB1-overexpressing MCF10A cells; primary antibodies against ZEB1 and YAP/TAZ or TAZ; spots counted per nucleus; details: remark: other sources report otherwise
[2] = target: T1, YAP (Yes-associated protein), …; test: co-IP; endogenous proteins of untransfected MDA-MB231 cells, 250 μg protein and 250 ng anti-YAP antibody (sc-101199); western blot; details: remark: other sources report otherwise
[3] = target: V5-tagged YAP, ectopically expressed, P46937; test: co-IP; nuclear extracts (20 mM HEPES pH 7.9, 400 mM NaCl, 1 mM EDTA, 1 mM DTT) of MCF7 or 293 cells transiently expressing V5-YAP and HA-ZEB1; IP with anti-HA affinity matrix or anti-V5 beads/antibody, 6 h, 4 °C; western blot; details: remark: other sources report otherwise
[4] = target: His-tagged WT YAP, full length, in vitro synthesized, P46937; test: pull-down; in vitro translated proteins (wheat germ) incubated in pull-down buffer (250 mM sucrose, 10 mM MOPS/KOH pH 7.2, 80 mM KCl, 5 mM MgCl2, 5 mM KH2PO4) 1 h at 37 °C; His-YAP held on Ni-NTA beads, 1 h at 4 °C, ten washes with 40 mM imidazole, elution with 250 mM imidazole; western blot; details: remark: other sources report otherwise
[5] = target: TAZ (transcriptional co-activator with PDZ-binding motif), endogenous (human (endogenous in MDA-MB231)) (UniProt Q9GZV5); test: proximity ligation; in situ PLA (Duolink In Situ Orange Kit Mouse/Rabbit) on formaldehyde-fixed MDA-MB231 cells or doxycycline-induced ZEB1-overexpressing MCF10A cells; primary antibodies against ZEB1 and YAP/TAZ or TAZ; spots counted per nucleus

B1: ZEB1 (endogenous), P37275 1-1124 (protein)
chain: MADGPRCKRRKQANPRRNNVTNYNTVVETNSDSDDEDKLHIVEEESVTDAADCEGVPEDDLPTDQTVLPGRSSEREGNAKNCWEDDRKEGQEILGPEAQADEAGCTVKDDECESDAENEQNHDPNVEEFLQQQDTAVIFPEAPEEDQRQGTPEASGHDENGTPDAFSQLLTCPYCDRGYKRFTSLKEHIKYRHEKNEDNFSCSLCSYTFAYRTQLERHMTSHKSGRDQRHVTQSGCNRKFKCTECGKAFKYKHHLKEHLRIHSGEKPYECPNCKKRFSHSGSYSSHISSKKCISLIPVNGRPRTGLKTSQCSSPSLSASPGSPTRPQIRQKIENKPLQEQLSVNQIKTEPVDYEFKPIVVASGINCSTPLQNGVFTGGGPLQATSSPQGMVQAVVLPTVGLVSPISINLSDIQNVLKVAVDGNVIRQVLENNQANLASKEQETINASPIQQGGHSVISAISLPLVDQDGTTKIIINYSLEQPSQLQVVPQNLKKENPVATNSCKSEKLPEDLTVKSEKDKSFEGGVNDSTCLLCDDCPGDINALPELKHYDLKQPTQPPPLPAAEAEKPESSVSSATGDGNLSPSQPPLKNLLSLLKAYYALNAQPSAEELSKIADSVNLPLDVVKKWFEKMQAGQISVQSSEPSSPEPGKVNIPAKNNDQPQSANANEPQDSTVNLQSPLKMTNSPVLPVGSTTNGSRSSTPSPSPLNLSSSRNTQGYLYTAEGAQEEPQVEPLDLSLPKQQGELLERSTITSVYQNSVYSVQEEPLNLSCAKKEPQKDSCVTDSEPVVNVIPPSANPINIAIPTVTAQLPTIVAIADQNSVPCLRALAANKQTILIPQVAYTYSTTVSPAVQEPPLKVIQPNGNQDERQDTSSEGVSNVEDQNDSDSTPPKKKMRKTENGMYACDLCDKIFQKSSSLLRHKYEHTGKRPHECGICKKAFKHKHHLIEHMRLHSGEKPYQCDKCGKRFSHSGSYSQHMNHRYSYCKREAEERDSTEQEEAGPEILSNEHVGARASPSQGDSDERESLTREEDEDSEKEEEEEDKEMEELQEEKECEKPQGDEEEEEEEEEVEEEEVEEAENEGEEAKTEGLMKDDRAESQASSLGQKVGESSEQVSEEKTNEA
binding [1]: binds | binding [2]: binds

B2: HA-tagged ZEB1, doxycycline-induced in MCF10A cells, P37275 1-1124 (protein)
chain: B1 chain
binding [1]: binds

B3: HA-tagged ZEB1, ectopically expressed, P37275 1-1124 (protein)
chain: B1 chain
binding [3]: binds

B4: HA-tagged WT ZEB1, full length, in vitro synthesized, P37275 1-1124 (protein)
chain: B1 chain
binding [4]: binds

B5: ZEB1 (endogenous) (protein, UniProt P37275 1-1124)
chain: B1 chain
binding [5]: no binding
